The values that follow come from US20210301005A1.

Sequences of proteins named here, by UniProt entry; tags and fusion partners are left off. A change or cut given only in a name is not applied to a line headed by its entry.
UniProt P27090: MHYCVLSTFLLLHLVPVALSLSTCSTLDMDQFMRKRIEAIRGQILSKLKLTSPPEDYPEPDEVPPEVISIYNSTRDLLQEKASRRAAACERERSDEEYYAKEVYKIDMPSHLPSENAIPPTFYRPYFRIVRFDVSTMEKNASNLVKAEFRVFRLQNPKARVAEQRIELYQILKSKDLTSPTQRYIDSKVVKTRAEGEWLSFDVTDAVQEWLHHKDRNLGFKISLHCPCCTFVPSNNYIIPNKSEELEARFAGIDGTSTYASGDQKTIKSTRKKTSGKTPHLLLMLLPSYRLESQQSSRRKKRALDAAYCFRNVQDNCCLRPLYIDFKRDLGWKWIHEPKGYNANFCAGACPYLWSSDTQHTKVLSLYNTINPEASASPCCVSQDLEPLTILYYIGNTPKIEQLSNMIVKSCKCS

No constants are given. Whether binding was seen depends on the method and setting. A result given as binding can be weak or reduced; the word gives no strength.

The assay deals with mouse TGFβ2, mature peptide (mouse) (UniProt P27090). In words: Biacore SPR (FIG. 55A).

B1: 6F12 (antibody, V domains shown)
VH: QVQLKESGPGLVQPSQTLSLTCTVSGFSLTTYNVHWVRQPPGKGLEWMGLIWNTGGTRYNSALKSRLSISKDTSKSQVFLRMNSLQTEDTATYYCARDPVPNKWHFDFWGPGTMVTVSS
VL: DIQMTQSPASLSASLGETVTIECLASEDIYSNLAWYQQKPGKSPQLLIYDARSLQDGVPSRFSGSESGPQYSLEINSLQSEDAVTYFCQQHHAYPFTFGSGTKLEIK
B1: the binding entry is “binds”.
